Assay [1] addresses c-Fos (human (endogenous in PCI13)) (UniProt P01100). Nature of the assay: co-IP; RIPA lysates (200 µg total protein) of low and high expressing COLXVI clones and mock controls; precipitated with anti-ILK or anti-c-Fos on µMACS Protein A/G MicroBeads; immunoblot for kindlin-1 or dyskerin. In general terms: In western blotting, separated proteins are transferred to a membrane and probed.

Protein sequences, listed by entry. Tags and fused reporters are not part of them.
UniProt P01100: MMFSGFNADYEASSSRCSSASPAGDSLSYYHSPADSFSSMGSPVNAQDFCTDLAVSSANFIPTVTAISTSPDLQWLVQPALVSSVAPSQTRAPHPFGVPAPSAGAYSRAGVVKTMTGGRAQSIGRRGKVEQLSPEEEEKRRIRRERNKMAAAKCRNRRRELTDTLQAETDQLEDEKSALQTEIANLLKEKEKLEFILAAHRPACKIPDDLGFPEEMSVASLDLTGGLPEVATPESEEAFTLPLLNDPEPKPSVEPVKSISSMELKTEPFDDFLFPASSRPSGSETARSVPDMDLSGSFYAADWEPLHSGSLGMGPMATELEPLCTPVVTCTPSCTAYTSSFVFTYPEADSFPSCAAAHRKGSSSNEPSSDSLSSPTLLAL
UniProt Q13418: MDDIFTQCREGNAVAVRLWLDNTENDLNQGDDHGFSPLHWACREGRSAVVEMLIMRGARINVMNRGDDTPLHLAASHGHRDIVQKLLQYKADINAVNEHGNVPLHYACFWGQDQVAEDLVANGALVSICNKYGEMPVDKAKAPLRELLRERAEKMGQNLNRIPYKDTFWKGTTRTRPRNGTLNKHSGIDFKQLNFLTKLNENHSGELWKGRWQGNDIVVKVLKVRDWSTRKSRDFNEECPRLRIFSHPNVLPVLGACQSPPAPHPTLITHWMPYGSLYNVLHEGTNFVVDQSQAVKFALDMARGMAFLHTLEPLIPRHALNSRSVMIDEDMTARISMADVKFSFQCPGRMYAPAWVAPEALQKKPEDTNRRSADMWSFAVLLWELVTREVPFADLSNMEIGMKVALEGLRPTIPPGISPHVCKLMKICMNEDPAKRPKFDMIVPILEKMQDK

Assay [2] addresses integrin-linked kinase (ILK) (human (endogenous in PCI13)) (UniProt Q13418). Described as above.

No constants are given. Whether binding was seen depends on the method and setting. Binding seen in cells or lysates may run through a third protein. Some entries that bind do so weakly or less than the wild type.

B1: dyskerin (DKC1) (protein, UniProt O60832 1-514)
chain: MADAEVIILPKKHKKKKERKSLPEEDVAEIQHAEEFLIKPESKVAKLDTSQWPLLLKNFDKLNVRTTHYTPLACGSNPLKREIGDYIRTGFINLDKPSNPSSHEVVAWIRRILRVEKTGHSGTLDPKVTGCLIVCIERATRLVKSQQSAGKEYVGIVRLHNAIEGGTQLSRALETLTGALFQRPPLIAAVKRQLRVRTIYESKMIEYDPERRLGIFWVSCEAGTYIRTLCVHLGLLLGVGGQMQELRRVRSGVMSEKDHMVTMHDVLDAQWLYDNHKDESYLRRVVYPLEKLLTSHKRLVMKDSAVNAICYGAKIMLPGVLRYEDGIEVNQEIVVITTKGEAICMAIALMTTAVISTCDHGIVAKIKRVIMERDTYPRKWGLGPKASQKKLMIKQGLLDKHGKPTDSTPATWKQEYVDYSESAKKEVVAEVVKAPQVVAEAAKTAKRKRESESESDETPPAAPQLIKKEKKKSKKDKKAKAGLESGAEPGDGDSDTTKKKKKKKKAKEVELVSE
As to B1, the binding entry in assay [1] is listed as “binds”.

B2: kindlin-1 (protein, UniProt Q9BQL6 1-677)
chain: MLSSTDFTFASWELVVRVDHPNEEQQKDVTLRVSGDLHVGGVMLKLVEQINISQDWSDFALWWEQKHCWLLKTHWTLDKYGVQADAKLLFTPQHKMLRLRLPNLKMVRLRVSFSAVVFKAVSDICKILNIRRSEELSLLKPSGDYFKKKKKKDKNNKEPIIEDILNLESSPTASGSSVSPGLYSKTMTPIYDPINGTPASSTMTWFSDSPLTEQNCSILAFSQPPQSPEALADMYQPRSLVDKAKLNAGWLDSSRSLMEQGIQEDEQLLLRFKYYSFFDLNPKYDAVRINQLYEQARWAILLEEIDCTEEEMLIFAALQYHISKLSLSAETQDFAGESEVDEIEAALSNLEVTLEGGKADSLLEDITDIPKLADNLKLFRPKKLLPKAFKQYWFIFKDTSIAYFKNKELEQGEPLEKLNLRGCEVVPDVNVAGRKFGIKLLIPVADGMNEMYLRCDHENQYAQWMAACMLASKGKTMADSSYQPEVLNILSFLRMKNRNSASQVASSLENMDMNPECFVSPRCAKRHKSKQLAARILEAHQNVAQMPLVEAKLRFIQAWQSLPEFGLTYYLVRFKGSKKDDILGVSYNRLIKIDAATGIPVTTWRFTNIKQWNVNWETRQVVIEFDQNVFTAFTCLSADCKIVHEYIGGYIFLSTRSKDQNETLDEDLFHKLTGGQD
In the case of B2, the binding entry in assay [2] is “binds”.

Source of the values: PMC3900656.
